Measured values taken from publication PMC4365668, “The zinc finger proteins ZNF644 and WIZ regulate the G9a/GLP complex for gene repression”.
No constants are given. Whether binding was seen depends on the method and setting. Binding seen in cells or lysates may run through a third protein. Some results given as binding are weak or reduced against the parent protein; the word gives no strength. For some of these results: Tags and fused reporters may be left off the sequences shown.

Sequences of proteins named here, by UniProt entry; tags and fusion partners are left off.
UniProt O95785: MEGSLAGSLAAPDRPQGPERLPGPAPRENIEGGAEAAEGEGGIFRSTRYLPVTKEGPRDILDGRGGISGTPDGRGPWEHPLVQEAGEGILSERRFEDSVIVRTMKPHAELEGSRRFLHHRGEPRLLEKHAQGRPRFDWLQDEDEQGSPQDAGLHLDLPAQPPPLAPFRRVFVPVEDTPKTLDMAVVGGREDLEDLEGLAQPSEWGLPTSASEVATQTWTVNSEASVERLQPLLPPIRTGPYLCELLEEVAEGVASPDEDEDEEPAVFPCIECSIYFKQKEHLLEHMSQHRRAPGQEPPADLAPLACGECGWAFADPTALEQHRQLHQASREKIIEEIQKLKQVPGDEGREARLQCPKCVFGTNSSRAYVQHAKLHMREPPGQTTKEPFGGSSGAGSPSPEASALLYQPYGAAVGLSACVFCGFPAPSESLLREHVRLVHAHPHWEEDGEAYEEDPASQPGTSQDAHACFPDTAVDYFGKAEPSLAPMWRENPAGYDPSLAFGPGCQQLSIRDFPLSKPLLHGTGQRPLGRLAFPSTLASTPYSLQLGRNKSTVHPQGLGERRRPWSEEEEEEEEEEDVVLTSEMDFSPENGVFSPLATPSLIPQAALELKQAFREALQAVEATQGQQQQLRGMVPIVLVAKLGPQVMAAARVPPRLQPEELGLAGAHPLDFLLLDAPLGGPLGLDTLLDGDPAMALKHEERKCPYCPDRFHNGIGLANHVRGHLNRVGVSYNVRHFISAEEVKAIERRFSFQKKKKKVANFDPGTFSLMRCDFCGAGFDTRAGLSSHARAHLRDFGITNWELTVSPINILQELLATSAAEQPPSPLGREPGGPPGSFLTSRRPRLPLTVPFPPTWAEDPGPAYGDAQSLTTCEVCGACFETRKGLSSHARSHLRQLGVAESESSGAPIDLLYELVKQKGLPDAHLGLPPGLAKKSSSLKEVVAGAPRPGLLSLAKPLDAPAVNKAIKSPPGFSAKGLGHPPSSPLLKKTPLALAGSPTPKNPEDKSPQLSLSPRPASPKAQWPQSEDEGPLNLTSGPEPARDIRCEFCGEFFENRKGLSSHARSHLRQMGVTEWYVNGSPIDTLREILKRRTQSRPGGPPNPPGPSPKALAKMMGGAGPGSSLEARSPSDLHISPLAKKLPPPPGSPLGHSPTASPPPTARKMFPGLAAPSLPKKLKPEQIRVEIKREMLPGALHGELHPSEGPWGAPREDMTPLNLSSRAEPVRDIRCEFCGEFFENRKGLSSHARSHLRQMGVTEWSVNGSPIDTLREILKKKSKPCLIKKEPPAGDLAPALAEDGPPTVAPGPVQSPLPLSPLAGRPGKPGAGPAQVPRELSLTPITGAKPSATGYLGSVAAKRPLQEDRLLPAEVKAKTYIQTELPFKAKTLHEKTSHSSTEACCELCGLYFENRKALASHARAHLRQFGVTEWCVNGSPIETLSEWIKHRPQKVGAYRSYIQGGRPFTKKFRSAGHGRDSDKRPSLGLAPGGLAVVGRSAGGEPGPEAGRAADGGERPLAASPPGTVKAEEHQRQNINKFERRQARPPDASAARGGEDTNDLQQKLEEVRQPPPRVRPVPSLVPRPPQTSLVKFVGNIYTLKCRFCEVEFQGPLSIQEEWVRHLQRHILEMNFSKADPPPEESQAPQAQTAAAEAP

How the values were obtained:
[1] = biological target: GLP (endogenous) (human (endogenous in 293T and U2OS)) (UniProt Q9H9B1); assay: co-IP; endogenous proteins of U2OS lysates; lysis in NETN400, diluted to 100 mM NaCl; IP and Western blotting with the antibodies indicated, irrelevant IgG as control; also after knock-down of G9a or GLP by siRNA
[2] = biological target: SFB-tagged WIZ (wild type) (human) (UniProt O95785); assay: pull-down; SFB-tagged protein and its partner expressed in 293T cells; lysates on streptavidin beads, Western blotting
[3] = biological target: SFB-tagged GLP (wild type) (UniProt Q9H9B1); assay: as above
[4] = biological target: SFB-tagged G9a (wild type) (UniProt Q96KQ7); assay: as above
[5] = biological target: SFB-tagged G9a (wild type) (UniProt Q96KQ7); assay: co-IP; Myc-tagged ZNF644 or deletion mutants co-expressed with SFB-G9a in 293T cells; IP and Western blotting with indicated antibodies
[6] = biological target: T1, G9a (endogenous) (human (endogenous in 293T and U2OS)), Q96KQ7; assay: co-IP; endogenous proteins of U2OS lysates; lysis in NETN400, diluted to 100 mM NaCl; IP and Western blotting with the antibodies indicated, irrelevant IgG as control; also after knock-down of G9a or GLP by siRNA; settings: remark: other sources report otherwise
T1 chain: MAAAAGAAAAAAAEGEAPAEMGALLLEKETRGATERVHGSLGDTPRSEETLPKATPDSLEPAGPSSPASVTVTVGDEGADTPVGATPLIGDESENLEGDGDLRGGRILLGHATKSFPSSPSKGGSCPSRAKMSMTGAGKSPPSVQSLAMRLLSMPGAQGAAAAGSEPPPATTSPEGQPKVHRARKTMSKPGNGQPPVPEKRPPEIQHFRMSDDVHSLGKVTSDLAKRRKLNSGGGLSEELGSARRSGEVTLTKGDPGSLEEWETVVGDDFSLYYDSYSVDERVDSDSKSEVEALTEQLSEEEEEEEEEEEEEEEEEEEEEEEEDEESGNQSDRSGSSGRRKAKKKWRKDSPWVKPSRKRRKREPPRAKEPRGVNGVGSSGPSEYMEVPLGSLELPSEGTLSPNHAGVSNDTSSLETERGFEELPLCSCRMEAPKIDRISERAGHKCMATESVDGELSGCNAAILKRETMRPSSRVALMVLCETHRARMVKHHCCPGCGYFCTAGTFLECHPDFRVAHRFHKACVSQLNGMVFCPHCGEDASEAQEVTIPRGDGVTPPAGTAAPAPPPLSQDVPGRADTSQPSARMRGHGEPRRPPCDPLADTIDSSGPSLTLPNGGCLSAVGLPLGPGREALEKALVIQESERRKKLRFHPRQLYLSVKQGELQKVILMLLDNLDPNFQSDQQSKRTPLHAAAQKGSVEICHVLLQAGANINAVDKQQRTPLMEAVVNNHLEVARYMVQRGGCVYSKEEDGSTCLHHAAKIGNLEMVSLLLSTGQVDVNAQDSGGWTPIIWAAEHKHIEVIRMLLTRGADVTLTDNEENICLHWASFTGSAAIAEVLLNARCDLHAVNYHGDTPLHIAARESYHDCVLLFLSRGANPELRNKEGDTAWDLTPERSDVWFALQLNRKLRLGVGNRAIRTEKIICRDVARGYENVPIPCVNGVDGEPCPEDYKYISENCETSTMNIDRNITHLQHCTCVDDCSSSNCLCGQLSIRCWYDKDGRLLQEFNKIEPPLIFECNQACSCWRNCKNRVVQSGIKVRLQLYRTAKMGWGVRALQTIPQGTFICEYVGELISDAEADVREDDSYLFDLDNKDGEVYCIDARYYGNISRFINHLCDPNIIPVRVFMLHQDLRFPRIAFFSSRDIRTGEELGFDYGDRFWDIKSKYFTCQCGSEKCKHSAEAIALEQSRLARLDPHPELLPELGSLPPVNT

[7] = biological target: G9a (endogenous) (human (endogenous in 293T and U2OS)) (UniProt Q96KQ7); assay: as above

WIZ (endogenous) (from UniProt O95785 1-1651)
binding [1]: binds

Myc-tagged GLP (from UniProt Q9H9B1 1-1298) (enzyme)
binding [2]: binds

WIZ (partner of SFB-G9a and SFB-GLP in Figure 2C and 2E) (from UniProt O95785 1-1651)
binding [3]: binds

B1: Myc-tagged ZNF644 (wild type) (protein, UniProt Q9H582 1-1327)
chain: MRSFLQQDVNKTKSRLNVLNGLANNMDDLKINTDITGAKEELLDDNNFISDKESGVHKPKDCQTSFQKNNTLTLPEELSKDKSENALSGGQSSLFIHAGAPTVSSENFILPKGAAVNGPVSHSSLTKTSNMNKGSVSLTTGQPVDQPTTESCSTLKVAADLQLSTPQKASQHQVLFLLSDVAHAKNPTHSNKKLPTSASVGCDIQNSVGSNIKSDGTLINQVEVGEDGEDLLVKDDCVNTVTGISSGTDGFRSENDTNWDPQKEFIQFLMTNEETVDKAPPHSKIGLEKKRKRKMDVSKITRYTEDCFSDSNCVPNKSKMQEVDFLEQNEELQAVDSQKYALSKVKPESTDEDLESVDAFQHLIYNPDKCGEESSPVHTSTFLSNTLKKKCEESDSESPATFSTEEPSFYPCTKCNVNFREKKHLHRHMMYHLDGNSHFRHLNVPRPYACRECGRTFRDRNSLLKHMIIHQERRQKLMEEIRELKELQDEGRSARLQCPQCVFGTNCPKTFVQHAKTHEKDKRYYCCEECNFMAVTENELECHRGIAHGAVVKCPMVTSDIAQRKTQKKTFMKDSVVGSSKKSATYICKMCPFTTSAKSVLKKHTEYLHSSSCVDSFGSPLGLDKRKNDILEEPVDSDSTKTLTKQQSTTFPKNSALKQDVKRTFGSTSQSSSFSKIHKRPHRIQKARKSIAQSGVNMCNQNSSPHKNVTIKSSVDQKPKYFHQAAKEKSNAKANSHYLYRHKYENYRMIKKSGESYPVHFKKEEASSLNSLHLFSSSSNSHNNFISDPHKPDAKRPESFKDHRRVAVKRVIKESKKESSVGGEDLDSYPDFLHKMTVVVLQKLNSAEKKDSYETEDESSWDNVELGDYTTQAIEDETYSDINQEHVNLFPLFKSKVEGQEPGENATLSYDQNDGFYFEYYEDTGSNNFLHEIHDPQHLETADASLSKHSSVFHWTDLSLEKKSCPYCPATFETGVGLSNHVRGHLHRAGLSYEARHVVSPEQIATSDKMQHFKRTGTGTPVKRVRKAIEKSETTSEHTCQLCGGWFDTKIGLSNHVRGHLKRLGKTKWDAHKSPICVLNEMMQNEEKYEKILKALNSRRIIPRPFVAQKLASSDDFISQNVIPLEAYRNGLKTEALSVSASEEEGLNFLNEYDETKPELPSGKKNQSLTLIELLKNKRMGEERNSAISPQKIHNQTARKRFVQKCVLPLNEDSPLMYQPQKMDLTMHSALDCKQKKSRSRSGSKKKMLTLPHGADEVYILRCRFCGLVFRGPLSVQEDWIKHLQRHIVNANLPRTGAGMVEVTSLLKKPASITETSFSLLMAEAAS
binding [4]: binds | binding [5]: binds

B2: GLP (endogenous), Q9H9B1 1-1298 (enzyme)
chain: MAAADAEAVPARGEPQQDCCVKTELLGEETPMAADEGSAEKQAGEAHMAADGETNGSCENSDASSHANAAKHTQDSARVNPQDGTNTLTRIAENGVSERDSEAAKQNHVTADDFVQTSVIGSNGYILNKPALQAQPLRTTSTLASSLPGHAAKTLPGGAGKGRTPSAFPQTPAAPPATLGEGSADTEDRKLPAPGADVKVHRARKTMPKSVVGLHAASKDPREVREARDHKEPKEEINKNISDFGRQQLLPPFPSLHQSLPQNQCYMATTKSQTACLPFVLAAAVSRKKKRRMGTYSLVPKKKTKVLKQRTVIEMFKSITHSTVGSKGEKDLGASSLHVNGESLEMDSDEDDSEELEEDDGHGAEQAAAFPTEDSRTSKESMSEADRAQKMDGESEEEQESVDTGEEEEGGDESDLSSESSIKKKFLKRKGKTDSPWIKPARKRRRRSRKKPSGALGSESYKSSAGSAEQTAPGDSTGYMEVSLDSLDLRVKGILSSQAEGLANGPDVLETDGLQEVPLCSCRMETPKSREITTLANNQCMATESVDHELGRCTNSVVKYELMRPSNKAPLLVLCEDHRGRMVKHQCCPGCGYFCTAGNFMECQPESSISHRFHKDCASRVNNASYCPHCGEESSKAKEVTIAKADTTSTVTPVPGQEKGSALEGRADTTTGSAAGPPLSEDDKLQGAASHVPEGFDPTGPAGLGRPTPGLSQGPGKETLESALIALDSEKPKKLRFHPKQLYFSARQGELQKVLLMLVDGIDPNFKMEHQNKRSPLHAAAEAGHVDICHMLVQAGANIDTCSEDQRTPLMEAAENNHLEAVKYLIKAGALVDPKDAEGSTCLHLAAKKGHYEVVQYLLSNGQMDVNCQDDGGWTPMIWATEYKHVDLVKLLLSKGSDINIRDNEENICLHWAAFSGCVDIAEILLAAKCDLHAVNIHGDSPLHIAARENRYDCVVLFLSRDSDVTLKNKEGETPLQCASLNSQVWSALQMSKALQDSAPDRPSPVERIVSRDIARGYERIPIPCVNAVDSEPCPSNYKYVSQNCVTSPMNIDRNITHLQYCVCIDDCSSSNCMCGQLSMRCWYDKDGRLLPEFNMAEPPLIFECNHACSCWRNCRNRVVQNGLRARLQLYRTRDMGWGVRSLQDIPPGTFVCEYVGELISDSEADVREEDSYLFDLDNKDGEVYCIDARFYGNVSRFINHHCEPNLVPVRVFMAHQDLRFPRIAFFSTRLIEAGEQLGFDYGERFWDIKGKLFSCRCGSPKCRHSSAALAQRQASAAQEAQEDGLPDTSSAAAADPL
binding [6]: binds

B3: ZNF644 (endogenous) (protein, UniProt Q9H582 1-1327)
chain: MRSFLQQDVNKTKSRLNVLNGLANNMDDLKINTDITGAKEELLDDNNFISDKESGVHKPKDCQTSFQKNNTLTLPEELSKDKSENALSGGQSSLFIHAGAPTVSSENFILPKGAAVNGPVSHSSLTKTSNMNKGSVSLTTGQPVDQPTTESCSTLKVAADLQLSTPQKASQHQVLFLLSDVAHAKNPTHSNKKLPTSASVGCDIQNSVGSNIKSDGTLINQVEVGEDGEDLLVKDDCVNTVTGISSGTDGFRSENDTNWDPQKEFIQFLMTNEETVDKAPPHSKIGLEKKRKRKMDVSKITRYTEDCFSDSNCVPNKSKMQEVDFLEQNEELQAVDSQKYALSKVKPESTDEDLESVDAFQHLIYNPDKCGEESSPVHTSTFLSNTLKKKCEESDSESPATFSTEEPSFYPCTKCNVNFREKKHLHRHMMYHLDGNSHFRHLNVPRPYACRECGRTFRDRNSLLKHMIIHQERRQKLMEEIRELKELQDEGRSARLQCPQCVFGTNCPKTFVQHAKTHEKDKRYYCCEECNFMAVTENELECHRGIAHGAVVKCPMVTSDIAQRKTQKKTFMKDSVVGSSKKSATYICKMCPFTTSAKSVLKKHTEYLHSSSCVDSFGSPLGLDKRKNDILEEPVDSDSTKTLTKQQSTTFPKNSALKQDVKRTFGSTSQSSSFSKIHKRPHRIQKARKSIAQSGVNMCNQNSSPHKNVTIKSSVDQKPKYFHQAAKEKSNAKANSHYLYRHKYENYRMIKKSGESYPVHFKKEEASSLNSLHLFSSSSNSHNNFISDPHKPDAKRPESFKDHRRVAVKRVIKESKKESSVGGEDLDSYPDFLHKMTVVVLQKLNSAEKKDSYETEDESSWDNVELGDYTTQAIEDETYSDINQEHVNLFPLFKSKVEGQEPGENATLSYDQNDGFYFEYYEDTGSNNFLHEIHDPQHLETADASLSKHSSVFHWTDLSLEKKSCPYCPATFETGVGLSNHVRGHLHRAGLSYEARHVVSPEQIATSDKMQHFKRTGTGTPVKRVRKAIEKSETTSEHTCQLCGGWFDTKIGLSNHVRGHLKRLGKTKWDAHKSPICVLNEMMQNEEKYEKILKALNSRRIIPRPFVAQKLASSDDFISQNVIPLEAYRNGLKTEALSVSASEEEGLNFLNEYDETKPELPSGKKNQSLTLIELLKNKRMGEERNSAISPQKIHNQTARKRFVQKCVLPLNEDSPLMYQPQKMDLTMHSALDCKQKKSRSRSGSKKKMLTLPHGADEVYILRCRFCGLVFRGPLSVQEDWIKHLQRHIVNANLPRTGAGMVEVTSLLKKPASITETSFSLLMAEAAS
binding [7]: binds
